According to the supplement of paper PMC10849652:
The other results are listed elsewhere or left out.

Chains of the proteins cited; added tags and fusions are not shown. Lines headed by an entry give the natural chain unless they say otherwise; changes in a name come on top.
UniProt Q9NX14, whole entry, looked up: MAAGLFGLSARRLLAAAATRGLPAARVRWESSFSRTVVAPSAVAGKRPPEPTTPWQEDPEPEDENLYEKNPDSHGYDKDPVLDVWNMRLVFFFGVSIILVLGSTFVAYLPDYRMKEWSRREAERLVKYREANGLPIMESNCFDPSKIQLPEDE
UniProt Q9Y6M9, whole entry, looked up: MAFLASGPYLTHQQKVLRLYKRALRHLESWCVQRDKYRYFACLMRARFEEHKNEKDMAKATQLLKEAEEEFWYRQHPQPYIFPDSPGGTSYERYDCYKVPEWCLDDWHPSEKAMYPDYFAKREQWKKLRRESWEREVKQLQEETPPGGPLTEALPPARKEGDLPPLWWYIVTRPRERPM
UniProt Q13469: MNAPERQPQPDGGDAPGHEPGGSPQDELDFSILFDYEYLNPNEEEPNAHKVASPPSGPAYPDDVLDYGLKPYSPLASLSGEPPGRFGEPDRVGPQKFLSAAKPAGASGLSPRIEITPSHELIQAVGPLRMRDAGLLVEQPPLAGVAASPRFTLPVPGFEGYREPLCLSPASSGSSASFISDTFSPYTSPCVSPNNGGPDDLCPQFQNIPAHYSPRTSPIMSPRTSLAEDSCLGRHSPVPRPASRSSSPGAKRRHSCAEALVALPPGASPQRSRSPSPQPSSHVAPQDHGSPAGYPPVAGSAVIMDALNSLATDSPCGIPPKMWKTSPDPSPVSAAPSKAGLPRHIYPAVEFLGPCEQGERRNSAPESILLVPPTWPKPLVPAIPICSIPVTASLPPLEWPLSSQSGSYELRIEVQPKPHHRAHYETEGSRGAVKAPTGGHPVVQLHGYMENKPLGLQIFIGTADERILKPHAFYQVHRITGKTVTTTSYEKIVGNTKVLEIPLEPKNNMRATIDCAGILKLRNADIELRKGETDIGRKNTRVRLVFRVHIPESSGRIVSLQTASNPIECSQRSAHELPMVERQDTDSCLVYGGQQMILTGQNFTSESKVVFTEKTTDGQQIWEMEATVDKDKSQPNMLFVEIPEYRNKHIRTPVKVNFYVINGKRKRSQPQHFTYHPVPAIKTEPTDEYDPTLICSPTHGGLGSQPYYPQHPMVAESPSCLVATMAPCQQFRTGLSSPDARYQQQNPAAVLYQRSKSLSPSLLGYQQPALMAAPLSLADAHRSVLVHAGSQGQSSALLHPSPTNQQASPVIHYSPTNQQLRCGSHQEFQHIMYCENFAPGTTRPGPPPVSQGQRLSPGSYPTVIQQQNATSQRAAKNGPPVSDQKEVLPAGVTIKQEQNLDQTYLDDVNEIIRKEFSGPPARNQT
UniProt Q13952: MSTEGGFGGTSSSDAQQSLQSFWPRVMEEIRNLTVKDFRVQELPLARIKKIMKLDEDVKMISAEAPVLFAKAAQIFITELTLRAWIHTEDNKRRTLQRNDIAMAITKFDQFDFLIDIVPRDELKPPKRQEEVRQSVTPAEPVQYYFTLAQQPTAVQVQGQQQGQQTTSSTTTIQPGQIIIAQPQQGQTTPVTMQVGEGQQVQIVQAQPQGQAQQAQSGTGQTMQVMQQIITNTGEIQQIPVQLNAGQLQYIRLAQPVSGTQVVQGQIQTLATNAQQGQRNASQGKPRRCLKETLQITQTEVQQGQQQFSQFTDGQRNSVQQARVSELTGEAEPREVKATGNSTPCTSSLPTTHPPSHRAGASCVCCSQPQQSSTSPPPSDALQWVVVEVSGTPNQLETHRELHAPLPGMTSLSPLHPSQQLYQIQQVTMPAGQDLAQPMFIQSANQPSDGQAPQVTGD
UniProt P28331, whole entry, looked up: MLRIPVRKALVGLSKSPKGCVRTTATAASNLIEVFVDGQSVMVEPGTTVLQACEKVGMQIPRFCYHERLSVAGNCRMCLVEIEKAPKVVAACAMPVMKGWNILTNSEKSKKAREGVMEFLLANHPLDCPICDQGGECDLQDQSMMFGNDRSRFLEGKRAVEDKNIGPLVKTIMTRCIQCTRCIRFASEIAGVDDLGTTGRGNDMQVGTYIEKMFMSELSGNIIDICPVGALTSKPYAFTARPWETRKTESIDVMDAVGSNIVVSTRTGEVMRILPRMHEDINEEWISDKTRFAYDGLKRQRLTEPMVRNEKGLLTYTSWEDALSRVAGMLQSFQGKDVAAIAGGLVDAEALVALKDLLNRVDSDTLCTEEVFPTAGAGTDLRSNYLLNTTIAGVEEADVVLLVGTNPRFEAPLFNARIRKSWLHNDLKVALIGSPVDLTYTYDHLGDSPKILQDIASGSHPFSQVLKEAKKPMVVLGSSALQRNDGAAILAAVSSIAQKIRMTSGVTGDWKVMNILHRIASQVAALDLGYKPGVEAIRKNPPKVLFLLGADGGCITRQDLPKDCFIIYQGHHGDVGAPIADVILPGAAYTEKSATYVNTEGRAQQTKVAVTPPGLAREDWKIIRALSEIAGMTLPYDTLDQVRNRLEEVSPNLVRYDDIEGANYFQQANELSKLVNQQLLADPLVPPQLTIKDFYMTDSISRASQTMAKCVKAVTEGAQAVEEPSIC
UniProt O14777: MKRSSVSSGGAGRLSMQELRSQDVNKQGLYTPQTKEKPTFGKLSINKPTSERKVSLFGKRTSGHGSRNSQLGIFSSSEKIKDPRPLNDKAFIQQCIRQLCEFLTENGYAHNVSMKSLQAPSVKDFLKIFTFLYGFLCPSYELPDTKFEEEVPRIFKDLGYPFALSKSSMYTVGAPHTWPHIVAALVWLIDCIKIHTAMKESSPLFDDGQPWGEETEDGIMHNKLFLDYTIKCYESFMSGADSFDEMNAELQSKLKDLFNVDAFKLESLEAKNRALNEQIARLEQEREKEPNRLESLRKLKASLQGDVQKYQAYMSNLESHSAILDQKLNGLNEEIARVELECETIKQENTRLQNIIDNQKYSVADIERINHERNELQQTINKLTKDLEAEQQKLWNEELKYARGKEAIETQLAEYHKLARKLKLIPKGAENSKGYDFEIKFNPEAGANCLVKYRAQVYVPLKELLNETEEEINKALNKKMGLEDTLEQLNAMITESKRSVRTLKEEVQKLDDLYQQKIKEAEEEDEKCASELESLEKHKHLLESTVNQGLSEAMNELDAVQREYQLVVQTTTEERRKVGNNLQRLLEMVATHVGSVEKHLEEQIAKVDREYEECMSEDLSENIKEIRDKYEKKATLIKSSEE
UniProt O43181, whole entry, looked up: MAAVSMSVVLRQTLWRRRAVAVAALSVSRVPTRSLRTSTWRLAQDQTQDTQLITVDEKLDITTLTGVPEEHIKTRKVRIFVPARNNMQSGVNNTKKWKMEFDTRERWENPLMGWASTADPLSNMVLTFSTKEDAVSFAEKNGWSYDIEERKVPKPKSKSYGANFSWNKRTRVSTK
UniProt Q8NC96: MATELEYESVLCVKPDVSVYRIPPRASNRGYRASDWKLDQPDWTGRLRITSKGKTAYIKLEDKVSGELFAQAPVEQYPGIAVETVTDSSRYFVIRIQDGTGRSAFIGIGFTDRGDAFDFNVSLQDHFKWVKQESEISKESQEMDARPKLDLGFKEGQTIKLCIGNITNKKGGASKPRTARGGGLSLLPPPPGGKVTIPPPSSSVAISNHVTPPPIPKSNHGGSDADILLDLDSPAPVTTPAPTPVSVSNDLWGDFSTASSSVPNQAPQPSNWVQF
UniProt O95299, whole entry, looked up: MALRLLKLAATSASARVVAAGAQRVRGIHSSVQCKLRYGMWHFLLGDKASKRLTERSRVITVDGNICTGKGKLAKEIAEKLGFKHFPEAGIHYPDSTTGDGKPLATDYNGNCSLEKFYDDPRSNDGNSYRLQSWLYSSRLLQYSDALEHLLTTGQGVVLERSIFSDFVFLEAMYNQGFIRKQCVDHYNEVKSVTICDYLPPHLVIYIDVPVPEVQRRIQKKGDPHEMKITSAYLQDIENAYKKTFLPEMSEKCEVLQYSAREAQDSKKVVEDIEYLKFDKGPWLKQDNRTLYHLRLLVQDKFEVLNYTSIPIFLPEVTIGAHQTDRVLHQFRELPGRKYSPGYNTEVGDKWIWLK
UniProt Q9Y697: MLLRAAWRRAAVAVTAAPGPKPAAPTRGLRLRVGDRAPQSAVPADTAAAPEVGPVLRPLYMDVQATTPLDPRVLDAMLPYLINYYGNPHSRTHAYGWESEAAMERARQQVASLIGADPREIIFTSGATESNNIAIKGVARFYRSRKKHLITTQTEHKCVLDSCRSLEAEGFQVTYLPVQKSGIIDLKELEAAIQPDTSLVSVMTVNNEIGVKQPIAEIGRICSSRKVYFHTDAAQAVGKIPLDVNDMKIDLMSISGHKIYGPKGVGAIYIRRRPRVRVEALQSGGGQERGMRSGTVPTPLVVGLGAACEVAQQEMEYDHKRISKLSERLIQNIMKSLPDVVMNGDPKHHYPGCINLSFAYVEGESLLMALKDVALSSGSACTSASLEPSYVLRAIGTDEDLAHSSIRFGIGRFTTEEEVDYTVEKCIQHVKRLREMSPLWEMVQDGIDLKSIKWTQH
UniProt Q7RTR2: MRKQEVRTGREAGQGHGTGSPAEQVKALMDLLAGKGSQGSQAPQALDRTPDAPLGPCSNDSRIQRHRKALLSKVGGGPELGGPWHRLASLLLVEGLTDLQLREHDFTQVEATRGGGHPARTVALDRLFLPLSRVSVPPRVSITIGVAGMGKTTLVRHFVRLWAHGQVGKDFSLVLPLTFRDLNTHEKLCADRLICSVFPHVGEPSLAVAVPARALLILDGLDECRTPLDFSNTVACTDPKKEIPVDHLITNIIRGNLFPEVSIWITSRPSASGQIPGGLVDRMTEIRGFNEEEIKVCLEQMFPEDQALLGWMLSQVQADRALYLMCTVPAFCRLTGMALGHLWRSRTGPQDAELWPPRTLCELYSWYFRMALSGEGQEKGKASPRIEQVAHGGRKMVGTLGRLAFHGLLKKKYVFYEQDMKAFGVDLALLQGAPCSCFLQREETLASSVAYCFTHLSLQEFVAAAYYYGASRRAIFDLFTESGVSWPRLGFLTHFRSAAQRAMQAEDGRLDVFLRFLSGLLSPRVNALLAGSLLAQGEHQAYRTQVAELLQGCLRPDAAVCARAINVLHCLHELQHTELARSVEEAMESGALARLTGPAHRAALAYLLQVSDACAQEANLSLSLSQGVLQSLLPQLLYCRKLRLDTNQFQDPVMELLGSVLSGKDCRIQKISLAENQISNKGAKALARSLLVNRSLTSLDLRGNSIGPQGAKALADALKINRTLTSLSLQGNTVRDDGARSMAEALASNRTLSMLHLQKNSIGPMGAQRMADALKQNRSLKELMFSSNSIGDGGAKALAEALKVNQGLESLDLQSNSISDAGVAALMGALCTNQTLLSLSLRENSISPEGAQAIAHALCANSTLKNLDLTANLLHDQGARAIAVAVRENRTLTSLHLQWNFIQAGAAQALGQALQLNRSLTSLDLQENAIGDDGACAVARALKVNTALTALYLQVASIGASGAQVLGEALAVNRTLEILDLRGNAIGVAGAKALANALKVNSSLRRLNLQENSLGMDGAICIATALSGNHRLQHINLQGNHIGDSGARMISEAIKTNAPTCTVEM
UniProt P23511, whole entry, looked up: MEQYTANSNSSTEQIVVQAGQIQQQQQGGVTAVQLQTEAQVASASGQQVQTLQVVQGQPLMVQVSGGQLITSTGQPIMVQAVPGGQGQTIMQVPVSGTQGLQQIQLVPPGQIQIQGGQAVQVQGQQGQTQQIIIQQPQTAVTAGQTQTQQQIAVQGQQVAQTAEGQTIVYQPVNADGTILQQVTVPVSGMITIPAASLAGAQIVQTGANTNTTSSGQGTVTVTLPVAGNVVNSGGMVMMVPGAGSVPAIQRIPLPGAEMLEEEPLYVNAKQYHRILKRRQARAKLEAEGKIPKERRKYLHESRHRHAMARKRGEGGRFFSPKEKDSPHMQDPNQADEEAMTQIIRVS
UniProt O95096: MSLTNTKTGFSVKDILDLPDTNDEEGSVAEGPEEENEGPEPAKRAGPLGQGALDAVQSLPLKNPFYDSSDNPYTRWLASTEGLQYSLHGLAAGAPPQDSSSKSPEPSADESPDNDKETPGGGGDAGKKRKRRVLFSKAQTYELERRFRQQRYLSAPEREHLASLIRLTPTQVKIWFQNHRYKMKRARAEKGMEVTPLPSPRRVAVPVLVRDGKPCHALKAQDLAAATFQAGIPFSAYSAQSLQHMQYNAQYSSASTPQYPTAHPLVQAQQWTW
UniProt P51956: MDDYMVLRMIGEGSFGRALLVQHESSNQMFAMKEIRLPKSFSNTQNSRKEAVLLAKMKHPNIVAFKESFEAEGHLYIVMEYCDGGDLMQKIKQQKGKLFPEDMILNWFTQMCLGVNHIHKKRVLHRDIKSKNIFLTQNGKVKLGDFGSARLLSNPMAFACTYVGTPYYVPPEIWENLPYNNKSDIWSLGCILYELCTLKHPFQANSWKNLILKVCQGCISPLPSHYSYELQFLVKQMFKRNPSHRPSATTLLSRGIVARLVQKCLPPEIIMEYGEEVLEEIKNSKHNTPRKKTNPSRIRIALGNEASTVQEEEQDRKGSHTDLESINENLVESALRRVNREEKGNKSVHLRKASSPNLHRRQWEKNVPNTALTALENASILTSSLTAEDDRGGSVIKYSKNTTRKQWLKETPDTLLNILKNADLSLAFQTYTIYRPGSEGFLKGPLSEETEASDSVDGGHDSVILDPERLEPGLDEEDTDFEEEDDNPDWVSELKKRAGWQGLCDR

Columns and labels:
Assay in all cases: log2 fold change, soluble protein after heating vs DMSO (PISA); higher = thermal stabilisation; K562 lysate, 10 uM; active = over 0.2 and 3.5 SD of the protein, either way, in both replicates (recomputed)
[1] = compound: CCCS(=O)(=O)Nc1ccc(F)c(C(=O)c2c[nH]c3ncc(-c4ccc(Cl)cc4)cc23)c1F [vemurafenib]
Summary of the method: (§1)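 Log-two fold change in thermal stability relative to solvent controls is reported from duplicates. For each sample, crude K562 extract from dounce-homogenised pellets in PBS pH 7.4 with 1 mM MgCl2, at 1 mg/mL protein, was treated with 10 μM compound for 30 min. Aliquots heated for 3 min across 48°C-58°C were pooled, brought to 0.5% NP-40 at 4°C and cleared at 21,000xg for 90 min. The supernatant was quantified by TMTpro 16plex LC-MS/MS with channel sums equalised.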

[2] = compound: CCCS(=O)(=O)Nc1ccc(F)c(C(=O)c2c[nH]c3ncc(Cl)cc23)c1F
Summary of the method: as §1

[3] = compound: CCN(CCCOc1ccc2c(Nc3cc(CC(=O)Nc4cccc(F)c4)[nH]n3)ncnc2c1)CCOP(=O)(O)O [barasertib]
Summary of the method: as §1

[4] = compound: CC[C@@H]1C(=O)N(C)c2cnc(Nc3ccc(C(=O)NC4CCN(C)CC4)cc3OC)nc2N1C1CCCC1
Summary of the method: as §1

[5] = compound: CC[C@@H]1C(=O)N(C)c2cnc(Nc3ccc(C(=O)N[C@H]4CC[C@H](N5CCN(CC6CC6)CC5)CC4)cc3OC)nc2N1C(C)C [volasertib]
Summary of the method: as §1

[6] = compound: CCn1c(C(=O)N(C2CC2)C2CC2)cc2c3c(ncn3C)c(Nc3cc(C)n(C)n3)nc21
Summary of the method: as §1

[7] = compound: CCn1cc(-c2ccnc3[nH]c(-c4cccc(CN(C)C)c4)cc23)c(-c2ccc(NC(=O)N(C)C)cc2)n1
Summary of the method: as §1

[8] = compound: CN1CCC(CNc2ccc3ncc(-c4cccc(OC(F)(F)F)c4)n3n2)CC1
Summary of the method: as §1

[9] = compound: CN1CCN(CCOc2cc(OC3CCOCC3)c3c(Nc4c(Cl)ccc5c4OCO5)ncnc3c2)CC1 [saracatinib]
Summary of the method: as §1

[10] = compound: CN1CCN(c2nc(C3=C(c4c[nH]c5ccccc45)C(=O)NC3=O)c3ccccc3n2)CC1 [sotrastaurin]
Summary of the method: as §1

Measured: log2 fold change

NDOR1 isoform 2 (UniProt Q9UHB4)
inactive: [1] 0.012 | [2] 0.036 | [3] 0.058 | [4] 0.104 | [5] -0.048 | [6] 0 | [7] -0.014 | [8] 0.025 | [9] 0.018 | [10] -0.012

NIPSNAP3B (UniProt Q9BS92)
inactive: [1] 0.098 | [2] 0.056 | [3] -0.129 | [4] -0.063 | [5] -0.021 | [6] 0.045 | [7] -0.12 | [8] 0.031 | [10] -0.1

NDUFB11 isoform 2 (UniProt Q9NX14)
inactive: [1] 0.022 | [2] 0.019 | [3] 0.138 | [4] 0.016 | [5] 0.038 | [6] 0.028 | [7] -0.024 | [8] -0.068 | [9] -0.026 | [10] -0.074

NDUFB9 (UniProt Q9Y6M9)
inactive: [1] -0.037 | [2] 0.026 | [3] -0.001 | [4] 0.008 | [5] 0.007 | [6] -0.016 | [7] 0.039 | [8] -0.049 | [9] 0.025 | [10] -0.021

NFATC2 (UniProt Q13469)
inactive: [1] -0.029 | [2] 0.032 | [3] 0.011 | [4] 0.03 | [5] -0.069 | [6] -0.006 | [7] 0.011 | [8] -0.002 | [9] 0.014 | [10] -0.016

NELFE (UniProt P18615)
inactive: [1] -0.003 | [2] -0.002 | [3] -0.018 | [4] 0.034 | [5] 0.004 | [6] -0.021 | [7] 0 | [8] 0.001 | [9] 0.018 | [10] 0.014

NFYC (UniProt Q13952)
inactive: [1] -0.019 | [2] -0.035 | [3] 0.035 | [4] 0.013 | [5] 0.009 | [6] 0.004 | [7] -0.037 | [8] 0.06 | [9] -0.022 | [10] 0.034

NDUFS1 isoform 2 (UniProt P28331)
inactive: [1] 0.041 | [2] 0.018 | [3] 0.011 | [4] -0.032 | [5] -0.001 | [6] 0.016 | [7] -0.006 | [8] -0.027 | [9] -0.004 | [10] 0.054

NDC80 (UniProt O14777)
inactive: [1] -0.098 | [2] 0.027 | [3] 0.003 | [4] -0.04 | [5] -0.016 | [6] 0.044 | [7] 0.051 | [8] -0.081 | [9] 0.009 | [10] -0.022

NDUFB5 (UniProt O43674)
inactive: [1] 0.048 | [2] -0.02 | [3] -0.021 | [4] -0.028 | [5] 0.018 | [6] 0.075 | [7] 0.137 | [8] -0.053 | [9] -0.012 | [10] -0.003

NDUFS2 (UniProt O75306)
inactive: [1] 0.031 | [2] 0.035 | [3] -0.001 | [4] -0.027 | [5] -0.018 | [6] -0.005 | [7] -0.004 | [8] -0.048 | [9] 0.021 | [10] -0.008

NHEJ1 (UniProt Q9H9Q4)
inactive: [1] 0.176 | [2] 0.02 | [3] 0.007 | [4] 0.001 | [5] 0.008 | [6] -0.064 | [7] -0.08 | [8] 0.016 | [9] 0.025 | [10] 0.013

NEU1 (UniProt Q99519)
inactive: [1] 0.151 | [2] 0.026 | [3] 0.053 | [4] -0.003 | [5] -0.009 | [6] -0.054 | [7] -0.05 | [8] 0.068 | [9] 0.007 | [10] -0.01

NDUFS4 (UniProt O43181)
inactive: [1] 0.029 | [2] 0.025 | [3] 0.009 | [4] 0.078 | [5] -0.002 | [6] -0.026 | [7] -0.034 | [8] -0.006 | [9] 0.02 | [10] 0.056

NFAT5 isoform 5 (UniProt O94916)
inactive: [1] 0.019 | [2] -0.007 | [3] -0.041 | [4] 0.043 | [5] -0.016 | [6] 0.042 | [7] -0.003 | [8] 0.044 | [9] 0.038 | [10] 0.044

NFIC (UniProt P08651)
active: [7] -0.453
inactive: [1] -0.071 | [2] 0.014 | [3] -0.106 | [4] 0.101 | [5] -0.001 | [6] -0.01 | [8] 0.055 | [9] 0.049 | [10] -0.01

NDUFAF5 (UniProt Q5TEU4)
inactive: [1] -0.015 | [2] 0.007 | [3] -0.032 | [4] 0.127 | [5] 0.04 | [6] -0.103 | [7] -0.052 | [8] 0.035 | [9] 0.179 | [10] 0

NECAP1 (UniProt Q8NC96)
inactive: [1] 0.026 | [2] 0.01 | [3] -0.011 | [4] 0.055 | [5] 0.017 | [6] -0.034 | [7] -0.144 | [8] 0.122 | [9] -0.013 | [10] -0.043

NFATC1 (UniProt O95644)
inactive: [1] 0.004 | [2] 0.058 | [3] -0.015 | [4] 0.001 | [5] 0 | [6] 0.007 | [7] -0.118 | [8] 0.064 | [9] 0.042 | [10] 0

NDUFA10 (UniProt O95299)
inactive: [1] -0.012 | [2] 0.008 | [3] 0.309 | [4] -0.07 | [5] -0.093 | [6] 0.021 | [7] -0.061 | [8] -0.138 | [9] 0.032 | [10] 0.16

NEK9 (UniProt Q8TD19)
inactive: [1] -0.001 | [2] 0.054 | [3] -0.008 | [4] 0.004 | [5] -0.01 | [6] 0.004 | [7] -0.046 | [8] 0.048 | [9] 0.035 | [10] -0.016

NDST1 (UniProt P52848)
inactive: [1] -0.041 | [2] 0.141 | [3] 0.066 | [4] -0.196 | [5] -0.003 | [6] -0.006 | [9] 0.016 | [10] 0.01

NDUFA7 (UniProt O95182)
inactive: [1] -0.015 | [2] 0.033 | [3] -0.047 | [4] 0.065 | [5] 0.011 | [6] -0.019 | [7] -0.001 | [8] -0.082 | [9] -0.02 | [10] 0.028

Eight consecutive records already listed, quoted:
NDC80 (UniProt O14777)
inactive: [1] -0.098 | [2] 0.027 | [3] 0.003 | [4] -0.04 | [5] -0.016 | [6] 0.044 | [7] 0.051 | [8] -0.081 | [9] 0.009 | [10] -0.022

NDUFB5 (UniProt O43674)
inactive: [1] 0.048 | [2] -0.02 | [3] -0.021 | [4] -0.028 | [5] 0.018 | [6] 0.075 | [7] 0.137 | [8] -0.053 | [9] -0.012 | [10] -0.003

NDUFS2 (UniProt O75306)
inactive: [1] 0.031 | [2] 0.035 | [3] -0.001 | [4] -0.027 | [5] -0.018 | [6] -0.005 | [7] -0.004 | [8] -0.048 | [9] 0.021 | [10] -0.008

NHEJ1 (UniProt Q9H9Q4)
inactive: [1] 0.176 | [2] 0.02 | [3] 0.007 | [4] 0.001 | [5] 0.008 | [6] -0.064 | [7] -0.08 | [8] 0.016 | [9] 0.025 | [10] 0.013

NEU1 (UniProt Q99519)
inactive: [1] 0.151 | [2] 0.026 | [3] 0.053 | [4] -0.003 | [5] -0.009 | [6] -0.054 | [7] -0.05 | [8] 0.068 | [9] 0.007 | [10] -0.01

NDUFS4 (UniProt O43181)
inactive: [1] 0.029 | [2] 0.025 | [3] 0.009 | [4] 0.078 | [5] -0.002 | [6] -0.026 | [7] -0.034 | [8] -0.006 | [9] 0.02 | [10] 0.056

NFAT5 isoform 5 (UniProt O94916)
inactive: [1] 0.019 | [2] -0.007 | [3] -0.041 | [4] 0.043 | [5] -0.016 | [6] 0.042 | [7] -0.003 | [8] 0.044 | [9] 0.038 | [10] 0.044

NFIC (UniProt P08651)
active: [7] -0.453
inactive: [1] -0.071 | [2] 0.014 | [3] -0.106 | [4] 0.101 | [5] -0.001 | [6] -0.01 | [8] 0.055 | [9] 0.049 | [10] -0.01

Carrying on.

NFS1 (UniProt Q9Y697)
inactive: [1] 0.027 | [2] 0.014 | [3] -0.008 | [4] 0.038 | [5] -0.027 | [6] -0.009 | [7] -0.002 | [8] 0.027 | [9] -0.047 | [10] -0.001

NLRC3 isoform 2 (UniProt Q7RTR2)
inactive: [1] -0.044 | [2] 0.06 | [3] 0.088 | [4] -0.12 | [5] 0.034 | [6] -0.06 | [9] -0.02 | [10] 0.026

NFYA (UniProt P23511)
inactive: [1] 0.047 | [2] 0.007 | [3] 0.023 | [4] 0.088 | [5] 0.057 | [6] -0.037 | [7] -0.07 | [8] 0.004 | [9] -0.026 | [10] 0.02

NDST2 (UniProt P52849)
inactive: [1] 0.144 | [2] 0.175 | [3] -0.059 | [4] -0.416 | [5] -0.144 | [6] 0.183 | [7] -0.096 | [8] 0.047 | [9] -0.088 | [10] -0.087

NKX2-2 (UniProt O95096)
inactive: [1] 0.169 | [2] 0.004 | [3] 0.066 | [4] 0.189 | [5] 0.028 | [6] -0.374 | [7] -0.534 | [8] 0.214 | [10] -0.072

NEK3 (UniProt P51956)
inactive: [1] -0.126 | [2] 0.046 | [3] 0.378 | [4] 0.098 | [5] 0.039 | [6] 0.005 | [7] 0.009 | [8] -0.018 | [9] -0.058 | [10] 0.021

NEO1 (UniProt Q92859)
inactive: [3] 0.014 | [7] 0.054 | [8] 0.126
